# From the supplement of paper PMC12823440, “Inhibitors supercharge kinase turnover through native proteolytic circuits” (Nature, 2025)
# The chains behind the UniProt entries cited, without tags or fusion partners. Where a name states a change or a piece, a line headed by the entry shows the natural chain unless it says otherwise.
# UniProt P00519, whole entry: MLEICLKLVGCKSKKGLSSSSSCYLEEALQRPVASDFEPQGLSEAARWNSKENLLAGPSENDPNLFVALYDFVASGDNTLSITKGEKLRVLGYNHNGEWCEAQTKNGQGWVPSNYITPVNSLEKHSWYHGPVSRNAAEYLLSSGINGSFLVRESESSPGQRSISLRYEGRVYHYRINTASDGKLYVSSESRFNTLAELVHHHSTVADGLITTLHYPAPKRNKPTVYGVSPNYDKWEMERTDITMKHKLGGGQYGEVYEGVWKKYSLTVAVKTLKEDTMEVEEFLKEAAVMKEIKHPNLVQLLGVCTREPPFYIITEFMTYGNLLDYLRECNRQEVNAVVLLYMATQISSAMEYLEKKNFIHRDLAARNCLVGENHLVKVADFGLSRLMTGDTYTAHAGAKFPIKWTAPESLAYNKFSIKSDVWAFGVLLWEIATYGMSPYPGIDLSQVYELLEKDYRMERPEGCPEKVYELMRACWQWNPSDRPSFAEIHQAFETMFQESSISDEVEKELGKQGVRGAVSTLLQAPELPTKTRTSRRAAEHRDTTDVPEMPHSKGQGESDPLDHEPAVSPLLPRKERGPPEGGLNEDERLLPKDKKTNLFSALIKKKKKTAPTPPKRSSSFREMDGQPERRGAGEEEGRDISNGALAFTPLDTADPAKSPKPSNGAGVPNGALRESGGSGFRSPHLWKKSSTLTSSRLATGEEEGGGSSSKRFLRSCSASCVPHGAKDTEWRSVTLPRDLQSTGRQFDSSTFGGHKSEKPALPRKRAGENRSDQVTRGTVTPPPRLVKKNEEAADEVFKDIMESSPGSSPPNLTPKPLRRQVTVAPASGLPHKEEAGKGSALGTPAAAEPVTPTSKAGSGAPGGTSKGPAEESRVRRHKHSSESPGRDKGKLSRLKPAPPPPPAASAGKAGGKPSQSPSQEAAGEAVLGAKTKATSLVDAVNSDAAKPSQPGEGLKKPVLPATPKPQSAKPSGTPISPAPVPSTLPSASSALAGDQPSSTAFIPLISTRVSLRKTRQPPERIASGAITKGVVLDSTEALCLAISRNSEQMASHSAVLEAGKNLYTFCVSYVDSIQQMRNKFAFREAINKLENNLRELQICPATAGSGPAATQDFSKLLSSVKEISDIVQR
# UniProt P31749: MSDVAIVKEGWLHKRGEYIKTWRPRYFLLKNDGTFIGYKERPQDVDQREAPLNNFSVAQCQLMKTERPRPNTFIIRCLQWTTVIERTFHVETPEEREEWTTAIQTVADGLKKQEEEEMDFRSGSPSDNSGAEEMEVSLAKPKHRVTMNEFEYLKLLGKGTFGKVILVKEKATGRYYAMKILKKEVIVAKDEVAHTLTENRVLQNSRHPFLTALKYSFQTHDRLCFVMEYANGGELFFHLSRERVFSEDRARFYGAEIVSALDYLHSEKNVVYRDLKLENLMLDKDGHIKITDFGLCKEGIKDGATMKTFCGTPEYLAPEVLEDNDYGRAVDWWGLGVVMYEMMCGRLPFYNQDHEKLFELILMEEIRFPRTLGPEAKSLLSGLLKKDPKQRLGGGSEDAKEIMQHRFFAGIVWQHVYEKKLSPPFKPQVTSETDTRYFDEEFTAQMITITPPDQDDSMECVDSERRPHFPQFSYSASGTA
# UniProt Q9UM73: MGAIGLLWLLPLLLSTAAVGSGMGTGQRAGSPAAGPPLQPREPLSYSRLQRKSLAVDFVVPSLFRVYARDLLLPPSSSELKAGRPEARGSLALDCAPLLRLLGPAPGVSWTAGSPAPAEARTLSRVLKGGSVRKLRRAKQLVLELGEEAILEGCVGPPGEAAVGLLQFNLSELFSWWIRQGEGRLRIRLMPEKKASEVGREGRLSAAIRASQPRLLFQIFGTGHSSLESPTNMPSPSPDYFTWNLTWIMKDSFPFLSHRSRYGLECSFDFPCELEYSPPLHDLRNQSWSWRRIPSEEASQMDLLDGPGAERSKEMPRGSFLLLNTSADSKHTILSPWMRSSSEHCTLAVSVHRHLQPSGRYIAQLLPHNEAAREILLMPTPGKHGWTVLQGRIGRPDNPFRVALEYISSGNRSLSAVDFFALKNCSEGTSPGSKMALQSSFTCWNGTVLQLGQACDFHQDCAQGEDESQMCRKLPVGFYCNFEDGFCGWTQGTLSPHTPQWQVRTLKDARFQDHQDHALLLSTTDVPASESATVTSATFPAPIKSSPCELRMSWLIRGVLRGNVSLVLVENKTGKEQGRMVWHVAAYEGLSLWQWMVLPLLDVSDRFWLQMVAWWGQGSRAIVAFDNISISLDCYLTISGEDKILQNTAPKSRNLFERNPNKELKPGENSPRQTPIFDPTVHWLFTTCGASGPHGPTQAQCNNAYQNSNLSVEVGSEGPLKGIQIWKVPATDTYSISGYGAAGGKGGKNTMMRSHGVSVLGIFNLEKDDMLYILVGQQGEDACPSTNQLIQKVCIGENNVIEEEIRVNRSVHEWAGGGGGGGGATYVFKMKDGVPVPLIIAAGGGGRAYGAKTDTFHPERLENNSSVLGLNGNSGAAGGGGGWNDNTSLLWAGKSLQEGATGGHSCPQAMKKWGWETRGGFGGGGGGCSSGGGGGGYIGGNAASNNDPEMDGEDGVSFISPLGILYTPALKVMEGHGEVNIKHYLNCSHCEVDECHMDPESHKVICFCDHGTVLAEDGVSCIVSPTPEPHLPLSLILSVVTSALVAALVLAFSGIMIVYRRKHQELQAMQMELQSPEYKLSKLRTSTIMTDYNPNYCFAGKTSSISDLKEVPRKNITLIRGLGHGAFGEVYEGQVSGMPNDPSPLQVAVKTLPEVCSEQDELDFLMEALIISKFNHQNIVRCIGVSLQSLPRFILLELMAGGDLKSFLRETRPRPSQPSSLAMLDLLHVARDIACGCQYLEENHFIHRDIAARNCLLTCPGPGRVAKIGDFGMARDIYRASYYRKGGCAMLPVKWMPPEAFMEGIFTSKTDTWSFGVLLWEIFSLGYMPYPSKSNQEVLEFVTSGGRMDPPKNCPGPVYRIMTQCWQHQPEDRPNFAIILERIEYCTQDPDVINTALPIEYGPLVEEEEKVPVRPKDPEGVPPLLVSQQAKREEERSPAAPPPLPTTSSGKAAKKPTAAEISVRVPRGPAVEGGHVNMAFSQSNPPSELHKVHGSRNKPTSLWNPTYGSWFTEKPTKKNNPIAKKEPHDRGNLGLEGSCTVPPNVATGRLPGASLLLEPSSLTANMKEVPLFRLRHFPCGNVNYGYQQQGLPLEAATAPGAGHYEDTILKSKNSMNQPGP
# UniProt O14965: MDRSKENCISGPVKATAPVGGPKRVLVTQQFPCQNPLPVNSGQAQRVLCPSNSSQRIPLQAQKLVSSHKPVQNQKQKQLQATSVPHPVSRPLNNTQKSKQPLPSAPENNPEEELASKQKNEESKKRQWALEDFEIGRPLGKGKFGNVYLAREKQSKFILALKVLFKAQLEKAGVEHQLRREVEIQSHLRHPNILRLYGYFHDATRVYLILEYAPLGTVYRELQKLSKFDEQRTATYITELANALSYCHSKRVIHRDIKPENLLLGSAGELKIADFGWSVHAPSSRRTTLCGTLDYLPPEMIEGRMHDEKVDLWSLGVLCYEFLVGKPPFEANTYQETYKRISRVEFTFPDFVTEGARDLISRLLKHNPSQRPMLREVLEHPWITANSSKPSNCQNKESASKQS
# UniProt Q96GD4, whole entry: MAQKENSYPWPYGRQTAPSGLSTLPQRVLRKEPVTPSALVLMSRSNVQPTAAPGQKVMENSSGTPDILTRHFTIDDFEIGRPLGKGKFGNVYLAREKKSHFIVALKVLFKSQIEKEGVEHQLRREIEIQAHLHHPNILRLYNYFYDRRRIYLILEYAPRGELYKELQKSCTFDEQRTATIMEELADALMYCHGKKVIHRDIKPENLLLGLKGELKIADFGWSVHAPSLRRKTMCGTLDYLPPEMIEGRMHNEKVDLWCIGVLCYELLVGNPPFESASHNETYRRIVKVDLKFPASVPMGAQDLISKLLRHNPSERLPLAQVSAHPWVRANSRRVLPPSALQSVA
# UniProt P51813: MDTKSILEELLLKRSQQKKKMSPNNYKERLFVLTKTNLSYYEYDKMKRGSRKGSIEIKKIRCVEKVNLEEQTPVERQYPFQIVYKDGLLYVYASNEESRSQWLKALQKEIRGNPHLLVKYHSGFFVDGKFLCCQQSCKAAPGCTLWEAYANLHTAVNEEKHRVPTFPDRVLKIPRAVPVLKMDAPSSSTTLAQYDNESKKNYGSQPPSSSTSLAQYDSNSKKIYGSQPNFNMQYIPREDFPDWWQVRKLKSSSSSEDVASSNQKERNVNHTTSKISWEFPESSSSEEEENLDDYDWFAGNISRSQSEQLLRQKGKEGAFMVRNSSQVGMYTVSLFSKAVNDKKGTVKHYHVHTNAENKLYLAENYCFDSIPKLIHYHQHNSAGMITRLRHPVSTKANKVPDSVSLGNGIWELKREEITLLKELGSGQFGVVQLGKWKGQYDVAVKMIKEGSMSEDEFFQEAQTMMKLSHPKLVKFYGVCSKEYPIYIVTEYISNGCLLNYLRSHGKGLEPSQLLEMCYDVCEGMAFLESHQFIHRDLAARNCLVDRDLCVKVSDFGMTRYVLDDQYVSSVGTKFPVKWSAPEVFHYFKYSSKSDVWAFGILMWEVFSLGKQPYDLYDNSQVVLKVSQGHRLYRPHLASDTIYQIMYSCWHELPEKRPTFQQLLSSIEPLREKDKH
# UniProt P15056, whole entry, looked up: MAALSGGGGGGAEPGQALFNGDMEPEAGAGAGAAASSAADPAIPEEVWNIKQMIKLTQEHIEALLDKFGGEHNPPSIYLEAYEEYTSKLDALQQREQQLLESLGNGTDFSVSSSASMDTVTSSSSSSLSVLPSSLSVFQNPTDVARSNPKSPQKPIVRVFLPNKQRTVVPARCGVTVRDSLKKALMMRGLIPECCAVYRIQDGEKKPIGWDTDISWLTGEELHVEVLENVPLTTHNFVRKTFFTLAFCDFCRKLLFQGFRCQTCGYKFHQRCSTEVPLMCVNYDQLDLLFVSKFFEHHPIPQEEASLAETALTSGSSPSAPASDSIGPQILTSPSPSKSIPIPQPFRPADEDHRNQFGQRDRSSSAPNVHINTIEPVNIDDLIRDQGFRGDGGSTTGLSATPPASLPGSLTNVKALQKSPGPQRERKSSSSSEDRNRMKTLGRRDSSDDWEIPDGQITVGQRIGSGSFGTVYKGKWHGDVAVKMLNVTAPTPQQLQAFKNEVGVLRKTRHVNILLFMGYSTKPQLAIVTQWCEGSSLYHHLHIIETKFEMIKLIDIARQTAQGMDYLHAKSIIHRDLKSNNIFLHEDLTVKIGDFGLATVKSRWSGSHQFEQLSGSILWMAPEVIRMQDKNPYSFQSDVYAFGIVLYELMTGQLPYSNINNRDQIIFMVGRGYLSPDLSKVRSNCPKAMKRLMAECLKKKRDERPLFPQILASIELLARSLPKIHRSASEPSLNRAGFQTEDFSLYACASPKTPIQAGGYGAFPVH
# UniProt Q13555: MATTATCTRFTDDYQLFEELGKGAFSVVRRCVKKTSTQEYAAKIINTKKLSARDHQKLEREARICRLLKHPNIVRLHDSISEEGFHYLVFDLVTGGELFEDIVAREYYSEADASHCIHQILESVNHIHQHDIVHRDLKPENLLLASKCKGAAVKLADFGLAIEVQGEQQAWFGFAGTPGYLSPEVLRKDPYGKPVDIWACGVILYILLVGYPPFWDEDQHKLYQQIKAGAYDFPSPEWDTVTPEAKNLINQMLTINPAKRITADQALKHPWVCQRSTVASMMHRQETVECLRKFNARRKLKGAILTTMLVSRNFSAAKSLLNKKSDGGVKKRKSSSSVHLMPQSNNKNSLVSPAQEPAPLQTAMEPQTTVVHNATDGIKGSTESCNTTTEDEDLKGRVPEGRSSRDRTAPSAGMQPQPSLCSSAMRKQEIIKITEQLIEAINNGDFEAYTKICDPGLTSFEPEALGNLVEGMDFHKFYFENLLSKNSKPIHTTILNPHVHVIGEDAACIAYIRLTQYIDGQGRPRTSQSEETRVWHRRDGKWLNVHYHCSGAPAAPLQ
# UniProt Q00535, whole entry, looked up: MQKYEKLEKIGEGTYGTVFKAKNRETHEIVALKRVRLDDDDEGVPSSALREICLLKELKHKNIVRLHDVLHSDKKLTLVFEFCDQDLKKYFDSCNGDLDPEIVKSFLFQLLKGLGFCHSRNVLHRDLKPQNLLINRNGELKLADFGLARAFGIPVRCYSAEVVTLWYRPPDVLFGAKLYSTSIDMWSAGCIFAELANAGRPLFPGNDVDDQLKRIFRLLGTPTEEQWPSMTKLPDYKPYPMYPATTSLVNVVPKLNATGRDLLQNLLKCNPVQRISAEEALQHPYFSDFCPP
# UniProt Q00534, whole entry: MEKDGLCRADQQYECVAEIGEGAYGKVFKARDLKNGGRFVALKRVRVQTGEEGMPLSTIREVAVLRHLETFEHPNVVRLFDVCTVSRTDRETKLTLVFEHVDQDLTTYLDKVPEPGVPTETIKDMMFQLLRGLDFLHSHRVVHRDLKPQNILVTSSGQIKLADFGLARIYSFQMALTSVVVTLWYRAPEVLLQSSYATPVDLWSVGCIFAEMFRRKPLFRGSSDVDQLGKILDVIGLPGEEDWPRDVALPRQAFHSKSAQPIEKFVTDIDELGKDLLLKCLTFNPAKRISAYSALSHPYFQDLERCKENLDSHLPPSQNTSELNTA
# Structures can show the parent of a compound that is named as a salt. Some of the results follow. Hit calls seldom repeat between salt and free forms of one compound.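 Kinases were expressed as nanoluciferase fusions in K562 cells and luminescence was read every 4 h between 2 and 18 h as percent of control, DMSO set to 100% and a positive control to 0%. A time point counts as decreased when the signal drops significantly (2 sigma). The hit call is the authors' own, does not follow from the count of time points alone, and its rule is not shown.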
# Key:
# Test in all cases: kinase-Nluc reporter destabilization hit call (1 = scored as downregulated) (binary); higher = compound decreases kinase abundance
# Conditions in all cases: K562; 2-18 h
# ABL1 = ABL1 (UniProt P00519)
# AKT1 = AKT1 (UniProt P31749)
# ALK = ALK (UniProt Q9UM73)
# ARAF = ARAF (UniProt P10398)
# AURKA = AURKA (UniProt O14965)
# AURKB = AURKB (UniProt Q96GD4)
# AURKC = AURKC (UniProt Q9UQB9)
# BLK = BLK (UniProt P51451)
# BMX = BMX (UniProt P51813)
# BRAF = BRAF (UniProt P15056)
# BRAF_V600E = tested on: BRAF_V600E
# BTK = BTK (UniProt Q06187)
# CAMK2A = CAMK2A (UniProt Q9UQM7)
# CAMK2G = CAMK2G (UniProt Q13555)
# CDK10 = CDK10 (UniProt Q15131)
# CDK2 = CDK2 (UniProt P24941)
# CDK3 = CDK3 (UniProt Q00526)
# CDK4 = CDK4 (UniProt P11802)
# CDK5 = CDK5 (UniProt Q00535)
# CDK6 = CDK6 (UniProt Q00534)
SMILES,kinase-Nluc reporter destabilization hit call (ABL1),kinase-Nluc reporter destabilization hit call (AKT1),kinase-Nluc reporter destabilization hit call (ALK),kinase-Nluc reporter destabilization hit call (ARAF),kinase-Nluc reporter destabilization hit call (AURKA),kinase-Nluc reporter destabilization hit call (AURKB),kinase-Nluc reporter destabilization hit call (AURKC),kinase-Nluc reporter destabilization hit call (BLK),kinase-Nluc reporter destabilization hit call (BMX),kinase-Nluc reporter destabilization hit call (BRAF),kinase-Nluc reporter destabilization hit call (BRAF_V600E),kinase-Nluc reporter destabilization hit call (BTK),kinase-Nluc reporter destabilization hit call (CAMK2A),kinase-Nluc reporter destabilization hit call (CAMK2G),kinase-Nluc reporter destabilization hit call (CDK10),kinase-Nluc reporter destabilization hit call (CDK2),kinase-Nluc reporter destabilization hit call (CDK3),kinase-Nluc reporter destabilization hit call (CDK4),kinase-Nluc reporter destabilization hit call (CDK5),kinase-Nluc reporter destabilization hit call (CDK6)
COc1cccc(OC)c1C(=O)OCc1cc(O)ccc1O[C@@H]1O[C@H](CO)[C@@H](O)[C@H](O)[C@H]1O [Curculigoside] (10 µM),inactive: 0,inactive: 0,inactive: 0,inactive: 0,inactive: 0,inactive: 0,inactive: 0,inactive: 0,inactive: 0,inactive: 0,inactive: 0,inactive: 0,inactive: 0,inactive: 0,inactive: 0,inactive: 0,inactive: 0,inactive: 0,inactive: 0,inactive: 0
Nc1ccc(-c2cnc(N)c(-c3ccc(Cl)cc3)c2)cn1 (10 µM),inactive: 0,inactive: 0,inactive: 0,inactive: 0,inactive: 0,inactive: 0,inactive: 0,inactive: 0,inactive: 0,inactive: 0,inactive: 0,inactive: 0,inactive: 0,inactive: 0,inactive: 0,inactive: 0,inactive: 0,inactive: 0,inactive: 0,inactive: 0
COc1ncc(Cl)cc1S(=O)(=O)Nc1ccc(F)c(C#Cc2cnc(N)nc2)c1F (2.5 µM),inactive: 0,inactive: 0,inactive: 0,inactive: 0,inactive: 0,inactive: 0,inactive: 0,inactive: 0,active: 1,inactive: 0,inactive: 0,inactive: 0,inactive: 0,inactive: 0,inactive: 0,inactive: 0,inactive: 0,inactive: 0,inactive: 0,inactive: 0
O=C(NCCN1CCCC1)c1cc(-c2ccc(CN3CCOCC3)cc2)nc2ccc(F)cc12 (10 µM),inactive: 0,inactive: 0,inactive: 0,inactive: 0,inactive: 0,inactive: 0,inactive: 0,inactive: 0,inactive: 0,inactive: 0,inactive: 0,inactive: 0,inactive: 0,inactive: 0,inactive: 0,inactive: 0,inactive: 0,inactive: 0,inactive: 0,inactive: 0
COc1cc2ncc(-c3ccccc3)nc2cc1OC [Tyrphostin AG1296] (10 µM),inactive: 0,inactive: 0,inactive: 0,inactive: 0,inactive: 0,inactive: 0,inactive: 0,inactive: 0,inactive: 0,inactive: 0,inactive: 0,inactive: 0,inactive: 0,inactive: 0,inactive: 0,inactive: 0,inactive: 0,inactive: 0,inactive: 0,inactive: 0
O=C([O-])c1cc2ccccc2c(Cc2c(O)c(C(=O)[O-])cc3ccccc23)c1O.[Na+].[Na+] [Pamoic acid (disodium)] (10 µM),inactive: 0,inactive: 0,inactive: 0,inactive: 0,inactive: 0,inactive: 0,inactive: 0,inactive: 0,inactive: 0,inactive: 0,inactive: 0,inactive: 0,inactive: 0,inactive: 0,inactive: 0,inactive: 0,inactive: 0,inactive: 0,inactive: 0,inactive: 0
C[C@@H]1COCCN1c1cc(C2([S@@](C)(=N)=O)CC2)nc(-c2ccnc3[nH]ccc23)n1 [(S)-Ceralasertib] (10 µM),inactive: 0,inactive: 0,inactive: 0,inactive: 0,inactive: 0,inactive: 0,inactive: 0,inactive: 0,inactive: 0,inactive: 0,inactive: 0,inactive: 0,inactive: 0,inactive: 0,inactive: 0,inactive: 0,inactive: 0,inactive: 0,inactive: 0,inactive: 0
CC1=C(C(=O)O)N2C(=O)[C@@H](NC(=O)[C@H](N)C3=CCC=CC3)[C@H]2SC1 [Cephradine] (10 µM),inactive: 0,inactive: 0,inactive: 0,inactive: 0,inactive: 0,inactive: 0,inactive: 0,inactive: 0,inactive: 0,inactive: 0,inactive: 0,inactive: 0,inactive: 0,inactive: 0,inactive: 0,inactive: 0,inactive: 0,inactive: 0,inactive: 0,inactive: 0
O=S(=O)(NCCCN1c2ccccc2CCc2ccc(Cl)cc21)c1ccc(OC(F)(F)F)cc1 (2.5 µM),inactive: 0,inactive: 0,inactive: 0,inactive: 0,inactive: 0,inactive: 0,inactive: 0,inactive: 0,inactive: 0,inactive: 0,inactive: 0,inactive: 0,inactive: 0,inactive: 0,inactive: 0,inactive: 0,inactive: 0,inactive: 0,inactive: 0,inactive: 0
Cc1cc(=O)oc2c(C=O)c(O)ccc12 (10 µM),inactive: 0,inactive: 0,inactive: 0,inactive: 0,inactive: 0,inactive: 0,inactive: 0,inactive: 0,inactive: 0,inactive: 0,inactive: 0,inactive: 0,inactive: 0,inactive: 0,inactive: 0,inactive: 0,inactive: 0,inactive: 0,inactive: 0,inactive: 0
C[C@@H](c1ccc(F)cc1)n1nnc2cnc3ccc(-c4ccc5ocnc5c4)cc3c21 (10 µM),inactive: 0,inactive: 0,inactive: 0,inactive: 0,inactive: 0,inactive: 0,inactive: 0,inactive: 0,inactive: 0,inactive: 0,inactive: 0,inactive: 0,inactive: 0,inactive: 0,inactive: 0,inactive: 0,inactive: 0,inactive: 0,inactive: 0,inactive: 0
N#Cc1c(C2CCNCC2)cc(-c2c(O)cccc2OCC2CC2)nc1N [ACHP (Hydrochloride)] (10 µM),inactive: 0,inactive: 0,inactive: 0,inactive: 0,inactive: 0,inactive: 0,inactive: 0,inactive: 0,inactive: 0,inactive: 0,inactive: 0,inactive: 0,inactive: 0,inactive: 0,inactive: 0,inactive: 0,inactive: 0,inactive: 0,inactive: 0,inactive: 0
CCOC(=O)N1CCN(C(=O)[C@H](Cc2cccc(C(=N)N)c2)NS(=O)(=O)c2c(C(C)C)cc(C(C)C)cc2C(C)C)CC1 (10 µM),inactive: 0,inactive: 0,inactive: 0,inactive: 0,inactive: 0,inactive: 0,inactive: 0,inactive: 0,inactive: 0,inactive: 0,inactive: 0,inactive: 0,inactive: 0,inactive: 0,inactive: 0,inactive: 0,inactive: 0,inactive: 0,inactive: 0,inactive: 0
Nc1nc(F)nc2c1ncn2[C@@H]1O[C@H](CO)[C@@H](O)[C@@H]1O [Fludarabine] (10 µM),inactive: 0,inactive: 0,inactive: 0,inactive: 0,inactive: 0,inactive: 0,inactive: 0,inactive: 0,inactive: 0,inactive: 0,inactive: 0,inactive: 0,inactive: 0,inactive: 0,inactive: 0,inactive: 0,inactive: 0,inactive: 0,inactive: 0,inactive: 0
CCC(C)N1c2ccccc2C(=O)N(C)c2cnc(Nc3ccc(C(=O)N4CCC(N5CCN(C)CC5)CC4)cc3OC)nc21 (stereo not given) (2.5 µM),inactive: 0,inactive: 0,inactive: 0,inactive: 0,inactive: 0,inactive: 0,inactive: 0,inactive: 0,inactive: 0,inactive: 0,inactive: 0,inactive: 0,inactive: 0,inactive: 0,inactive: 0,inactive: 0,inactive: 0,inactive: 0,inactive: 0,inactive: 0
C=CC(=O)Nc1ccc(CN2C(=O)N(c3cc(OC)cc(OC)c3)Cc3cnc(Nc4ccc(N5CCN(C)CC5)cc4)nc32)cc1 (2.5 µM),inactive: 0,inactive: 0,inactive: 0,inactive: 0,inactive: 0,inactive: 0,inactive: 0,active: 1,inactive: 0,inactive: 0,inactive: 0,inactive: 0,inactive: 0,inactive: 0,inactive: 0,inactive: 0,inactive: 0,inactive: 0,inactive: 0,inactive: 0
O=Nc1c(-c2c(O)[nH]c3ccc(I)cc23)[nH]c2ccccc12 [5-Iodo-indirubin-3'-monoxime] (10 µM),inactive: 0,inactive: 0,inactive: 0,inactive: 0,inactive: 0,inactive: 0,inactive: 0,inactive: 0,inactive: 0,active: 1,inactive: 0,inactive: 0,inactive: 0,inactive: 0,inactive: 0,inactive: 0,inactive: 0,inactive: 0,inactive: 0,inactive: 0
NCCNS(=O)(=O)c1cccc2c(Cl)cccc12 [A-3 (hydrochloride)] (10 µM),inactive: 0,inactive: 0,inactive: 0,inactive: 0,inactive: 0,inactive: 0,inactive: 0,inactive: 0,inactive: 0,inactive: 0,inactive: 0,inactive: 0,inactive: 0,inactive: 0,inactive: 0,inactive: 0,inactive: 0,inactive: 0,inactive: 0,inactive: 0

# Part of the list above, with bars between the fields.
SMILES | kinase-Nluc reporter destabilization hit call (ABL1) | kinase-Nluc reporter destabilization hit call (AKT1) | kinase-Nluc reporter destabilization hit call (ALK) | kinase-Nluc reporter destabilization hit call (ARAF) | kinase-Nluc reporter destabilization hit call (AURKA) | kinase-Nluc reporter destabilization hit call (AURKB) | kinase-Nluc reporter destabilization hit call (AURKC) | kinase-Nluc reporter destabilization hit call (BLK) | kinase-Nluc reporter destabilization hit call (BMX) | kinase-Nluc reporter destabilization hit call (BRAF) | kinase-Nluc reporter destabilization hit call (BRAF_V600E) | kinase-Nluc reporter destabilization hit call (BTK) | kinase-Nluc reporter destabilization hit call (CAMK2A) | kinase-Nluc reporter destabilization hit call (CAMK2G) | kinase-Nluc reporter destabilization hit call (CDK10) | kinase-Nluc reporter destabilization hit call (CDK2) | kinase-Nluc reporter destabilization hit call (CDK3) | kinase-Nluc reporter destabilization hit call (CDK4) | kinase-Nluc reporter destabilization hit call (CDK5) | kinase-Nluc reporter destabilization hit call (CDK6)
O=Nc1c(-c2c(O)[nH]c3ccc(I)cc23)[nH]c2ccccc12 [5-Iodo-indirubin-3'-monoxime] (10 µM) | inactive: 0 | inactive: 0 | inactive: 0 | inactive: 0 | inactive: 0 | inactive: 0 | inactive: 0 | inactive: 0 | inactive: 0 | active: 1 | inactive: 0 | inactive: 0 | inactive: 0 | inactive: 0 | inactive: 0 | inactive: 0 | inactive: 0 | inactive: 0 | inactive: 0 | inactive: 0
NCCNS(=O)(=O)c1cccc2c(Cl)cccc12 [A-3 (hydrochloride)] (10 µM) | inactive: 0 | inactive: 0 | inactive: 0 | inactive: 0 | inactive: 0 | inactive: 0 | inactive: 0 | inactive: 0 | inactive: 0 | inactive: 0 | inactive: 0 | inactive: 0 | inactive: 0 | inactive: 0 | inactive: 0 | inactive: 0 | inactive: 0 | inactive: 0 | inactive: 0 | inactive: 0
